# Results are given in words; binding and its absence hold for the method and conditions named. In cells and extracts the contact can be indirect. Some entries that bind do so weakly or less than the wild type. Tags and fused reporters may be left off the sequences shown.
# T1: ferroportin (FPN1) on murine macrophage cells (RAW 264.7, J774) (murine) (UniProt Q9JHI9)
# T1 sequence (looked up): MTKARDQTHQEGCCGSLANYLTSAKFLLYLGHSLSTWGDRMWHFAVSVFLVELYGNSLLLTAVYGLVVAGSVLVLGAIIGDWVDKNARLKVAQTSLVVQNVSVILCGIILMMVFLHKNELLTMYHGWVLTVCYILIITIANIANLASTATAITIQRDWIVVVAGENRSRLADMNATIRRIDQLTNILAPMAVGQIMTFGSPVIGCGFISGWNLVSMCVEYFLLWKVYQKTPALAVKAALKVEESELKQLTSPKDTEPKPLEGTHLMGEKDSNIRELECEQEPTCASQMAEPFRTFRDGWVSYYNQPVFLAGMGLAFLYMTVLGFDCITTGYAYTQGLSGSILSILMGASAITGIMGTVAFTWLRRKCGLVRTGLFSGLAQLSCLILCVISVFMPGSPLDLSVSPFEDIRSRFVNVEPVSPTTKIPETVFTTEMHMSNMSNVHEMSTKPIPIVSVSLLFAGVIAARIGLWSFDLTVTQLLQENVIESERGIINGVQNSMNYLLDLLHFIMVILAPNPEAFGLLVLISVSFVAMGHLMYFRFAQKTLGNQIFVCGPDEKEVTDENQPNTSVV
# Key:
# [1] = biological target: T1, ferroportin (FPN1) on murine macrophage cells (RAW 264.7, J774) (murine); test: DSS cross-linking on RAW 264.7 cells, Ni-NTA pull-down, Western blot with anti-ferroportin antibody
# [2] = biological target: T1, ferroportin (FPN1) on murine macrophage cells (RAW 264.7, J774) (murine); test: DSS cross-linking on RAW 264.7 cells, Ni-NTA pull-down, Western blot with anti-FPN1 Ab (FIG. 7C)
binder,measurement,setting,value
GADTHFPICIFCCGCCHRSKCGMCCKTFDHHHHHH [hepcidin-25His (Hep-25His)],binding,[1],binds
same,binding,[2],binds

# Reference: US20110097749A1
